The assay addresses T1, Twist (Drosophila) (UniProt P10627).
T1 sequence: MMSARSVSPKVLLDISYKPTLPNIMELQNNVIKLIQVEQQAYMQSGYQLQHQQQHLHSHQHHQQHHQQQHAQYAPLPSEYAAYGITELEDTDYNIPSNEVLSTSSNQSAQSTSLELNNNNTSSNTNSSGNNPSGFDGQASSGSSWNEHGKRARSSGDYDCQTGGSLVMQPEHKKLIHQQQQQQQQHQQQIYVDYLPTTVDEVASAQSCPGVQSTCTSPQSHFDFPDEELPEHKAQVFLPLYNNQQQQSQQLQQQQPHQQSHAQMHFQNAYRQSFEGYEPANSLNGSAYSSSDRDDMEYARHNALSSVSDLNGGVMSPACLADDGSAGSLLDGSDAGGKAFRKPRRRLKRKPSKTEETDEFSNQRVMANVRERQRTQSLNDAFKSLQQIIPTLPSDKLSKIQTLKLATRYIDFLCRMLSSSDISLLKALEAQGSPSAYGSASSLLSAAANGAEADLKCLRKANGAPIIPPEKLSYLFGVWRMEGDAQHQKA
The assay is described as follows: yeast double interaction screen.

Results are given in words; binding and its absence hold for the method and conditions named. Binding calls can cover weak binding; strength is not graded here.

On to Crc (Drosophila), for which the binding result was “binds”.

nop5 (Drosophila): the binding result is on record as “binds”.

Source of the values: paper doi:10.1101/2021.02.10.430492.
